According to patent CN114605540A:
Results are given in words; binding and its absence hold for the method and conditions named. Some results given as binding are weak or reduced against the parent protein; the word gives no strength.

Protein sequences, listed by entry. Tags and fused reporters are not part of them. Residues count along the entry.
UniProt P10747, residues 19-152: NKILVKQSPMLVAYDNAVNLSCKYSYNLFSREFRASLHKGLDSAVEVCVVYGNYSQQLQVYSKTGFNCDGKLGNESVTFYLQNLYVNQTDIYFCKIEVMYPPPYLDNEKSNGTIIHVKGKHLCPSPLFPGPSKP

B1: P2-6G (VHH)
VHH: AVQLVESGGGLVQAGGSLRLSCAASRSIFRIEVMGWYRQAPGKQRELVAGITSGGLTNYAGSVKGRFTISRDNAENTVYLQMDSLKPEDTAVYYCNAQTRRLGGLPGGSWGQGTQVTVSS
B2: P1-8H (VHH)
VHH: AVQLVESGGGLVQAGGSLRLSCAASGLTFSHYAMGWFRQAPGKEREFVAAISWSGGSTYYADSVKGRFTISRDNAKNTVFLQMNNLKPEDTAVYYCAAGVLYIGDYPGSYQYDYWGQGTQVTVSS
B3: P1-12C (VHH)
VHH: AVQLVESGGGLVQAGGSLRLSCAASGLTFSHYAMGWFRQAPGKEREFVAAISWSGGSTYYADSVKGRFTISRDNAKNMVFLQMNSLKPEDTAVYYCAAGVLYIGDYPGSYQYDYWGQGTQVTVSS
B4: P1-12E (VHH)
VHH: AVQLVESGGGLVQAGGSLRLSCAASGLTFSHYAMGWFRQAPGKEREFVAAISWSGGSTYYADSVEGRFTISRDNAKNTVFLQMNSLKPEDTAVYYCAAGVLYIGDYPGSYQYDYWGQGTQVTVSS
B5: P2-1H (VHH)
VHH: AVQLVESGGGLVQAGGSLRLSCAASGLTFSHYAMGWFRQAPEKEREFVAAISWSGGSTYYADSVKGRFTISRDNAKNTVFLQMNSLKPEDTAVYYCAAGVLYIGDYPGSYQYDYWGQGTQVTVSS
B6: P2-3G (VHH)
VHH: AVQLVESGGGLVQAGGSLRLSCAASGLTFSHYAMGWFRQAPGKEREFVAAISWSGGSTYYADSVKGRFTISRDSAKNTVFLQMNSLKPEDTAVYYCAAGVLYIGDYPGSYQYDYWGQGTQVTVSS
B7: P2-4B (VHH)
VHH: AVQLVESGGGLVQAGGSLRLSCAASGLTFSHYAMGWFRQAPGKEREFVAAISWSGGSTYYADSVKGRFTISRDNAKNTVFLQMDSLKPEDTAVYYCAAGVLYIGDYPGSYQYDYWGQGTQVTVSS
B8: P2-8D (VHH)
VHH: AVQLVESGGGLVQAGGSLRLSCAASGLTFSHYAMGWFRQAPGKEREFVAAISWSGGSAYYADSVKGRFTISRDNAKNTVFLQMNSLKPEDTAVYYCAAGVLYIGDYPGSYQYDYWGQGTQVTVSS
B9: P2-10B (VHH)
VHH: AVQLVESGGGLVQAGGSLRLSCAASGLTFSHYAMGWFRQAPGREREFVAAISWSGGSTYYADSVKGRFTISRDNAKNTVFLQMNSLKPEDTAVYYCAAGVLYIGDYLGSYQYDYWGQGTQVTVSS
B10: P2-10F (VHH)
VHH: AVQLVESGGGLVQAGGSLRLSCAASGLTFSHYAMGWFRQAPGKEREFVAAISWSGGSTYYVDSVKGRFTISRDNAKNTVFLQMNSLKPEDTAVYYCAAGVLYIGDYPGSYQYDYWGQGTQVTVSS
B11: P2-11G (VHH)
VHH: AVQLVESGGGLVQAGGSLRLSCAASGLTFSHYAMGWFRQAPGKEREFVAAISWSGGSTYYADTVKGRFTISRDNAKNTVFLQMNSLKPEDTAVYYCAAGVLYIGDYPGSYQYDYWGQGTQVTVSS
B12: P1-1A (VHH)
VHH: AVQLVESGGGLVQPGGSLRLSCAASRSIFRIEVMGWYRQAPGKQRELVAGITSGGLTNYAGSVKGRFTISRDNAENTVYLQMDSLKPEDTAVYYCNAQTRRLGGLPGGSWGQGTQVTVSS
B13: P2-11H (VHH)
VHH: AVQLVESGGGLVQAGGSLRLSCAASGLTFSHYAMGWFRQAPGKEREFVAAISWSGGSTYYADSVKGRFTISRDNAKNTVFLQMNSLKPEDTAVYYCAAGVLHIGDYPGSYQYDYWGQGTQVTVSS
B14: P1-7C (VHH)
VHH: AVQLVESGGGLVQPGGSLRLSCVASGDIFGFYAMGWYRQAPEKQRELVATITSGSITDYADSVKGRFQISRDNAKNTVYLQMNSLKPEDTAVYYCRLAPLESFDSTWRRVGGTGMDYWGKGTQVTVSS
B15: P1-6E (VHH)
VHH: AVQLVESGGGLVQPGGSLRLSCVASGNIFGFYAMGWYRQAPEKQRELVATITSGSITDYADSVKGRFQISRDNAKNTVYLQMNSLKPEDTAVYYCRLAPLESFDSTWRRVGGTGMDYWGKGTQVTVSS
B16: P1-3C (VHH)
VHH: AVQLVESGGGLVQPGGSLRLSCAASGSIFSIEIMGWYRQAPGKQRELVAGITGGGLTNYADSVKGRFTISRDNAKDTVYLQMNSLKPEDTADYYCNAQTRRVGGLPGGSWGQGTQVTVSS
B17: P2-1G (VHH)
VHH: AVQLVESGGGLVQPGGSLRLSCAASGSIFSIEIMGWYRQAPGKQRELVAGITSGGLTNYADSVKGRFIISRDNAKNTVYLQMNSLKPEDTAVYYCNAQTRRVGGLPGGSWGQGTQVTVSS
B18: P1-4C (VHH)
VHH: AVQLVESGGGLVLPGGSLRLSCAASGSIFSIEIMGWYRQAPGKQRELVAGITSGGLTNYADSVKGRFTISRDNAKNTVYLQMNSLKPEDTAVYYCNAQTRRVEGLPGGSWGQGTQVTVSS
B19: P1-6C (VHH)
VHH: AVQLVESGGGLVQPGGSLRLSCAASGSIFSIEIMGWYRQAPGKQRELVAGITSGGLTNYADSVKGRFTISRDNAKNTVYLQMNSLKPEDTAVYYCNAQTRRVGGLPGGSWGQGTQVTVSS
B20: P1-6H (VHH)
VHH: AVQLVESGGGLVQPGGSLRLSCAASGSIFSIEVMGWYRQAPGKQRELVAGITSNGLTNYADSVKGRFTISRDNAENTVYLQMNSLKPEDTGVYYCNAQTRRIGGLPGGSWGQGTQVTVSS
B21: P1-8C (VHH)
VHH: AVQLVESGGGLVQPGGSLRLSCAASGSIFSIEIMGWYRQAPGKQRELVAGITSGGLTNYADSVKGRFTISRDDAKNTVYLQMNSLKPEDTAVYYCNAQTRRVGGLPGGSWGQGTQVTVSS
B22: P1-8D (VHH)
VHH: AVQLVESGGGLVQPGGSLRLSCAASGSIFSIEIMGWYRQAPGKQRELVAGITGGGLTNYADSVKGRFTISRDNAKNTVYLQMNSLKPEDTADYYCNAQTRRVGGLPGGSWGQGTQVTVSS
B23: P1-8F (VHH)
VHH: AVQLVESGGGLVQPGGSLRLSCAASRSIFRVEVMGWYRQAPGKQRELVAGITSGGLTNYAGSVKGRFTISRDNAENTVYLQMDSLKPEDTAVYYCNAQTRRLGGLPGGSWGQGTQVTVSS
B24: P1-9D (VHH)
VHH: AVQLVESGGGLVQPGGSLRLSCAASGSIFSIEIMGWYRQAPGKQRELVAGITSGGLTNYADSVKGRFTISRDNAKNTAYLQMNSLKPEDTAVYYCNAQTRRVGGLPGGSWGQGTQVTVSS
B25: P1-11C (VHH)
VHH: AVQLVESGGGLVQPGGSLRLSCAASGSIFSIEIMGWYRQAPGKQRELVAGITSGGLTNYADSVKGRFTISRDNAKNTVYLQMNSLKPEDTAVYYCNAQTRRVGGLPGGSWGQGTQVTVS
B26: P2-2C (VHH)
VHH: AVQLVESGGGSVQPGGSLRLSCAASGSIFSIEIMGWYRQAPGKQRELVAGITSGGLTNYADSVKGRFTISRDNAKNTVYLQMNSLKPEDTAVYYCNAQTRRVGGLPGGSWGQGTQVTVSS
B27: P2-2D (VHH)
VHH: AVQLVESGGGLVQPGGSLRLSCAASGSIFSIEIMGWYRQAPGKQRELVAGITSGGLTNYADSVKGRFTISRDNAKNTVYLQMNSLKPEDTAVYYCNAQTRRVGGLPGGSWGLGTQVTVSS
B28: P2-2H (VHH)
VHH: AVQLVESGGGSVQPGGSLRLSCAASGSIFSIEIMGWYRQAPGKQRELVAGITGGGLTNYADSVKGRFTISRDNAKNTVYLQMNSLKPEDTADYYCNAQTRRVGGLPGGSWGQGTQVTVSS
B29: P2-4G (VHH)
VHH: AVQLVESGGGLVQPGGSRRLSCAASGSIFSIEIMGWYRQAPGKQRELVAGITGGGLTNYADSVKGRFTISRDNAKNTVYLQMNSLKPEDTADYYCNAQTRRVGGLPGGSWGQGTQVTVSS
B30: P2-5E (VHH)
VHH: AVQLVESGGGLVQPGGSLRLSCAASGSIFSIEIMGWYRQAPGKQRELVAGITSGGLTNYADSVKGRFTISRDNAKNTMYLQMNSLKPEDTAVYYCNAQTRRVGGLPGGSWGQGTQVTVSS
B31: P2-8F (VHH)
VHH: AVQLVESGGGLVQPGGSLRLSCAASGGIFSINLMGWYRQAPGKQRELVAGITDGGLTNYADSVKGRFTISRDNAKNTVYLRMNSLKPEDTAVYYCNAQTRRVGGLPGGSWGQGTQVTVSS
B32: P1-9E (VHH)
VHH: AVQLVESGGGLVPAGGSLRLSCGTSGPIFGHYTMDWYRQAPGNQRELVAGITDGGLLNYEDSVKGRFTISRDNAKNTVYLQMNSLKPEDTAVYYCHVRVLFSHYWGQGTQVTVSS
B33: P2-2F (VHH)
VHH: AVQLVESGGGLVQPGGSLRLSCAASRSIFRIEVMGWYRQAPGKQRELVAGITSGGLTNYAGSVKGRFAISRDNAENTVYLQMDSLKPEDTAVYYCNAQTRRLGGLPGGSWGQGTQVTVSS

Biological target: CD28 ECD蛋白 (UniProt P10747)
Assay: monoclonal phage ELISA on coated CD28, two rounds of verification

binding | Binder
binds | B1
binds | B2
binds | B3
binds | B4
binds | B5
binds | B6
binds | B7
binds | B8
binds | B9
binds | B10
binds | B11
binds | B12
binds | B13
binds | B14
binds | B15
binds | B16
binds | B17

binding | Binder
binds | B18
binds | B19
binds | B20
binds | B21
binds | B22
binds | B23
binds | B24
binds | B25
binds | B26
binds | B27
binds | B28
binds | B29
binds | B30
binds | B31
binds | B32
binds | B33
